# Test results taken from patent US11160871B2, “SSTR-targeted conjugates and particles and formulations thereof” (TARVEDA THERAPEUTICS, INC., priority 2015, dated 2021).
# Some entries share one result that the patent states for a list of compounds.
# System: H69 tumors
# Test: H69 model tumor growth inhibition
# Type: in vivo
# Conditions: Conjugate 57 dosed at 2.0 mg/kg; Conjugate 57/NP20 dosed at 3.0 mg/kg
smiles,measurement,value
COc1cc2cc(c1Cl)N(C)C(=O)C[C@H](OC(=O)[C@H](C)N(C)C(=O)CCSSC[C@H](NC(=O)[C@@H]1CSSC[C@H](NC(=O)[C@H](N)Cc3ccccc3)C(=O)N[C@@H](Cc3ccc(O)cc3)C(=O)N[C@H](Cc3c[nH]c4ccccc34)C(=O)N[C@@H](CCCCN)C(=O)N[C@@H]([C@@H](C)O)C(=O)N1)C(N)=O)[C@]1(C)O[C@H]1[C@H](C)[C@@H]1C[C@@](O)(NC(=O)O1)[C@H](OC)/C=C/C=C(\C)C2 [Conjugate 57],Tumor inhibitions,above 95%
